PubChem BioAssay AID1053208, Peter MacCallum Cancer Centre, 2014
The deposit covers about 17,000 reagents; shown is a part drawn at random. 788 of all reagents (4.7%) count as active. 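Calls rest on z-score classes alone; an extra cut-off of viability at most 70% of control was not applied to them.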 Reagents against one gene are numbered here. Further read-outs or replicates are left out here. No sequences are given here.

Purpose: 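Genes whose silencing cuts survival of bone tumour cells only with doxorubicin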 (primary screen)
Cells: mouse osteosarcoma cells, early-passage culture from an engineered mouse model of fibroblastic bone tumour
Reagents: siRNA pool against mouse genes, 40 nM
Duration: about 120 h (48 h before drug, then 72 h with drug)
Challenge: doxorubicin 100 nM for 72 h, roughly 30-40% inhibitory dose
Detection: 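Viability read as ATP luminescence after 72 h of 100 nM doxorubicin or none, duplicate wells averaged, scaled to non-targeting siRNA, then expressed as robust z-scores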
Direction: viability z-score with doxorubicin: higher = more viable cells under doxorubicin; viability z-score without drug: higher = more viable cells with knock-down alone; z-score of drug to no-drug ratio: higher = less drug sensitisation by knock-down
Rule for the call: 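Called active if knock-down leaves viability unchanged without drug (z within -2 to 2) but lowers it with doxorubicin (z at or under -2)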

gene	reagent no.	combined z-score class	viability z-score with doxorubicin	viability z-score without drug	z-score of drug to no-drug ratio	Outcome
Cdc25a	1	no change with or without drug	0.9	0.17	0.9	inactive
Dnajb4	1	no change with or without drug	0	0.84	-0.45	inactive
Pkp3	1	no change with or without drug	0.67	0.34	0.56	inactive
Mcm5	1	no change with or without drug	-0.34	0	-0.22	inactive
Pax6	1	no change with or without drug	-0.11	0.51	-0.34	inactive
Gpalpp1	1	no change with or without drug	0.79	0.17	0.79	inactive
Fgf12	1	no change with or without drug	-0.56	0.34	-0.67	inactive
Omp	1	no change with or without drug	-1.8	-0.84	-1.24	inactive
Pla2g6	1	no change with or without drug	-0.67	0.17	-0.67	inactive
Nphp4	1	no change with or without drug	0.45	0	0.56	inactive
Rad51ap1	1	no change with or without drug	0	0.17	0	inactive
A330070K13Rik	1	no change with or without drug	-0.67	-0.51	-0.22	inactive
Usp28	1	low cell count with doxorubicin only	-2.02	0.67	-2.36	active
Fam199x	1	no change with or without drug	1.69	0	1.91	inactive
Txlna	1	no change with or without drug	-1.69	0.34	-1.91	inactive
Gnal	1	no change with or without drug	-0.34	0.84	-0.79	inactive
Cep104	1	no change with or without drug	-1.12	-0.17	-1.01	inactive
Disp1	1	no change with or without drug	-0.34	0.17	-0.34	inactive
Ntn1	1	no change with or without drug	0.34	-0.84	1.12	inactive
Ybx1	1	no change with or without drug	1.01	1.18	0.34	inactive
Elp4	1	no change with or without drug	0.45	1.18	-0.22	inactive
Or4c103	1	no change with or without drug	-1.8	-0.51	-1.46	inactive
Dmac2	1	no change with or without drug	-1.12	-0.17	-1.01	inactive
Prr5	1	no change with or without drug	-1.8	-0.84	-1.24	inactive
Lats2	1	no change with or without drug	-1.12	0.51	-1.35	inactive
Aph1b	1	no change with or without drug	0.22	-0.84	1.01	inactive
Rasa1	1	no change with or without drug	0.22	0.17	0.22	inactive
Vmn1r206	1	no change with or without drug	-1.24	-0.67	-0.79	inactive
Dync1i2	1	no change with or without drug	1.8	0.17	1.91	inactive
Saa2	1	no change with or without drug	1.35	0.17	1.35	inactive
Ywhae	1	no change with or without drug	-0.79	-0.84	-0.11	inactive
Mrfap1	1	no change with or without drug	1.46	0.84	1.01	inactive
Klk15	1	no change with or without drug	-0.45	0.51	-0.67	inactive
Aldob	1	low cell count with and without drug	-3.04	-2.53	-1.57	inactive
Psd3	1	no change with or without drug	-0.79	0.17	-0.79	inactive
Psd3	2	high cell count with doxorubicin only	2.36	1.85	1.12	inactive
Atp5f1b	1	no change with or without drug	-0.45	-0.51	0	inactive
Ppp2r1b	1	no change with or without drug	-0.45	-0.84	0.22	inactive
Tada3	1	no change with or without drug	0.22	-1.52	1.57	inactive
Lamtor2	1	no change with or without drug	-0.22	-1.85	1.35	inactive
A730020M07Rik	1	no change with or without drug	0.22	0.51	0	inactive
Rasl2-9	1	no change with or without drug	-0.45	1.52	-1.24	inactive
Zfp420	1	no change with or without drug	-0.67	1.52	-1.46	inactive
Upb1	1	no change with or without drug	-0.22	1.01	-0.79	inactive
Tmem131l	1	no change with or without drug	-1.57	1.18	-2.25	inactive
Gnat2	1	no change with or without drug	1.8	0.84	1.35	inactive
Sertad4	1	no change with or without drug	0.22	-0.51	0.67	inactive
P2rx5	1	no change with or without drug	-0.11	-0.51	0.34	inactive
Oit3	1	no change with or without drug	-0.22	-0.84	0.45	inactive
Ppa1	1	no change with or without drug	0	-0.51	0.45	inactive
Eng	1	no change with or without drug	-0.11	0.67	-0.45	inactive
Tubb2b	1	no change with or without drug	-0.22	1.18	-0.9	inactive
Bcl6	1	no change with or without drug	0.9	-0.51	1.46	inactive
Coq8b	1	no change with or without drug	-0.22	0.84	-0.67	inactive
Acbd6	1	no change with or without drug	0.79	1.01	0.22	inactive
Garin1b	1	no change with or without drug	-0.22	-0.51	0.22	inactive
Dnajc5	1	no change with or without drug	-1.35	1.52	-2.14	inactive
Sec16b	1	no change with or without drug	0.9	0.67	0.56	inactive
Noazfp	1	no change with or without drug	1.35	1.01	0.79	inactive
Chil6	1	no change with or without drug	1.12	-0.17	1.46	inactive
Mtfr2	1	low cell count without drug only	0.45	-2.36	2.59	inactive
Tiam1	1	no change with or without drug	-0.9	-0.17	-0.79	inactive
Nup160	1	low cell count with and without drug	-5.06	-8.26	1.01	inactive

Laid out differently: results already given.
gene,reagent no.,combined z-score class,viability z-score with doxorubicin,viability z-score without drug,z-score of drug to no-drug ratio,Outcome
Txlna,1,no change with or without drug,-1.69,0.34,-1.91,inactive
Gnal,1,no change with or without drug,-0.34,0.84,-0.79,inactive
Cep104,1,no change with or without drug,-1.12,-0.17,-1.01,inactive
Disp1,1,no change with or without drug,-0.34,0.17,-0.34,inactive
Ntn1,1,no change with or without drug,0.34,-0.84,1.12,inactive
Ybx1,1,no change with or without drug,1.01,1.18,0.34,inactive
Elp4,1,no change with or without drug,0.45,1.18,-0.22,inactive
Or4c103,1,no change with or without drug,-1.8,-0.51,-1.46,inactive
Dmac2,1,no change with or without drug,-1.12,-0.17,-1.01,inactive
Prr5,1,no change with or without drug,-1.8,-0.84,-1.24,inactive
